Data as given in article doi:10.1101/2022.11.26.517237.
These are yes or no findings as the source states them, for the method shown. Some binding calls cover weakened binding; strength is not graded here.

B1: Sis1_(1-81), J-domain (1-72) and part of the GF region (73-81) of Sis1 (domain or fragment, UniProt P25294 1-81)
chain: MVKETKLYDLLGVSPSANEQELKKGYRKAALKYHPDKPTGDTEKFKEISEAFEILNDPQKREIYDQYGLEAARSGGPSFGP

Tests used:
[1] = molecular target: T1, Sis1_(1-81), J-domain (1-72) and part of the GF region (73-81) of Sis1 (S. cerevisiae) (UniProt P25294); experiment: NMR titration
T1 sequence: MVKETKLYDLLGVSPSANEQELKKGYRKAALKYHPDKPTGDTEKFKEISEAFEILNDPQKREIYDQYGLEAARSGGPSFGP

[2] = molecular target: T2, Sis1_(1-352), full-length class B J-domain protein Sis1 of S. cerevisiae (S. cerevisiae) (UniProt P25294); experiment: NMR titration
T2 sequence: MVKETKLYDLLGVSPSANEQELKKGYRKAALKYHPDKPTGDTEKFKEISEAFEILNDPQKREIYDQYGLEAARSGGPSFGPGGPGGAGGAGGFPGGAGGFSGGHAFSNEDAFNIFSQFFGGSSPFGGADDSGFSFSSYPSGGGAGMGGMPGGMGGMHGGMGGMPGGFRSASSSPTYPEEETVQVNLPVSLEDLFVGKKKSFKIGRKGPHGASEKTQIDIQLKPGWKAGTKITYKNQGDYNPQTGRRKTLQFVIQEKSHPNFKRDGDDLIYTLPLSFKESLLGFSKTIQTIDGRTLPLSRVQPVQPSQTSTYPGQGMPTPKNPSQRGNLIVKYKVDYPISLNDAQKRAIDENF

Binder	binding [1]	binding [2]
GPTIEEVD [GPTIEEVD peptide, C-terminal EEVD motif of HSP70]	binds weakly	binds weakly
B1	no binding	–
